Assay results reported in patent US20030073218A1, “High affinity inhibitors for target validation and uses thereof” (Princeton University, priority 1999, published 2003).
Some entries share one result that the patent states for a list of compounds. At least one compound was matched to its structure with a doubt left.

Test system: wild-type Fus3 expressing yeast
Assay: Yeast mating assay for Fus3 function
Type: cell-based, Saccharomyces cerevisiae
Conditions: all concentrations up to 50 μM

CC(C)(C)n1nc(Cc2cccc3ccccc23)c2c(N)ncnc21 [Compound 6h, 4-amino-1-(tert-butyl)-3-(1′-naphthylmethyl)pyrazolo[3,4-d]pyrimidine]
diploid colony forming units: 0.6-1.1×10^5 cfu/ml
